The values that follow come from publication PMC9159911.

These are yes or no findings as the source states them, for the method shown.

This assay deals with outer membrane protein A (OmpA) of Aeromonas veronii (A. veronii). Description: two-hybrid; bacterial two-hybrid in E. coli XL1-Blue MRF' with pBT and pTRG derivatives; SmpB with OmpA (Supplementary Figure 2).

B1: small protein B (SmpB) of Aeromonas veronii (protein, UniProt A0A0T6N165 1-162)
chain: MSKKNSKNKAGSSTIALNRTARHEYFIEEKIEAGLSLQGWEVKSLRAGKANISEAYVIFRDGEAYLFGSSFLPLQAASSHVVCDPTRTRKLLLSRRELDKLESLIARQGYTIVPLALYWKQCWVKVEIGLVKGKKEHDKREDTKAREWDREKARIMKNKHRG
Regarding B1, the binding entry was “no binding”.
